Assay results taken from PubChem BioAssay AID330 (DTP/NCI, 2004).
The list does not hold the whole screen: it gathers tests that were run many times, whatever their T/C, doses with no T/C, and many T/C values between a quarter and a half above the control. Other doses and runs of a compound stand elsewhere. T/C: endpoint of the treated group in % of that of the vehicle group. Some doses have a count of surviving animals in place of a T/C: the source holds a T/C of zero for them, seemingly a mark for toxic or unscored doses. Some survivor counts are full or nearly so, which does not show that the dose was tolerated: the source hardly ever lists a survival T/C far under the control, and the zero likely stands for such cases as well. Counts of survivors are from the toxicity check (mostly the fifth day) where no day follows; animals may have died later. Schedules are NCI's codes, taken here to give the interval after Q, in days (D) or hours (H), and the number of doses after X. Where survival is the endpoint, this PubChem deposit counts one and a half times the control or more as active, and values a quarter to a half above the control carry no call in these data; other NCI protocols may use other cut-offs.

System: P388 leukemia ip, CD2F1 mice, survival T/C
Assay: NCI In Vivo Anticancer Drug Screen. Data for tumor model P388 Leukemia (intraperitoneal) in CD2F1 (CDF1) mice
Conditions: T/C endpoint: median survival time, higher T/C = longer survival
[1] = dose: 200.0 mg/kg/injection, schedule: Q01DX009 (ip), vehicle: Klucel (hydroxypropylcellulose) (HPC)
[2] = dose: 100.0 mg/kg/injection, schedule: Q01DX009 (ip), vehicle: Klucel (hydroxypropylcellulose) (HPC)
[3] = dose: 200.0 mg/kg/injection, schedule: Q01DX009 (ip), vehicle: saline

Which survivor count (dose: 30.0 mg/kg/injection, schedule: Q01DX005 (ip), vehicle: saline with Tween-80) does the source give for `Cc1cc2nc(CC(=O)c3ccccc3)c(CC(=O)c3ccccc3)nc2cc1C` here?
The survivor count was 6 of 6.

What about the survivor count (dose: 60.0 mg/kg/injection, schedule: Q01DX005 (ip), vehicle: saline with Tween-80) of the same molecule?
The survivor count was 6 of 6.

What about the survivor count (dose: 120.0 mg/kg/injection, schedule: Q01DX005 (ip), vehicle: saline with Tween-80) of the same molecule?
The survivor count was 6 of 6.

And the survivor count (dose: 240.0 mg/kg/injection, schedule: Q01DX005 (ip), vehicle: saline with Tween-80)?
The survivor count was 4 of 6.

For `CN(C)C(C#N)C(=O)c1ccccc1` (configuration not stated), which survivor count [1] is on record?
Its survivor count is 0 of 6.

What does the source list for `O=c1c2ccccc2sc2c([N+](=O)[O-])ccc(NCCNCCO)c12`?
T/C (dose: 12.5 mg/kg/injection, schedule: Q01DX009 (ip), vehicle: saline with Tween-80): 133 % of control; T/C (dose: 25.0 mg/kg/injection, schedule: Q01DX009 (ip), vehicle: saline with Tween-80): 141 % of control; survivor count (dose: 100.0 mg/kg/injection, schedule: Q01DX009 (ip), vehicle: saline with Tween-80): 6 of 6; survivor count (dose: 200.0 mg/kg/injection, schedule: Q01DX009 (ip), vehicle: saline with Tween-80): 6 of 6

With `COc1ccc(C(OC)C2CCCCC2N2CCCCC2)cc1` (configuration not stated) as the molecule, how does the survivor count (dose: 3.13 mg/kg/injection, schedule: Q01DX009 (ip), vehicle: Klucel (hydroxypropylcellulose) (HPC)) read?
The survivor count was 2 of 6.

What about the survivor count (dose: 6.25 mg/kg/injection, schedule: Q01DX009 (ip), vehicle: Klucel (hydroxypropylcellulose) (HPC)) of the same molecule?
The survivor count was 0 of 6.

What about the survivor count (dose: 12.5 mg/kg/injection, schedule: Q01DX009 (ip), vehicle: Klucel (hydroxypropylcellulose) (HPC)) of the same molecule?
Its survivor count is 0 of 6.

What about the survivor count (dose: 25.0 mg/kg/injection, schedule: Q01DX009 (ip), vehicle: Klucel (hydroxypropylcellulose) (HPC)) of the same molecule?
The survivor count was 0 of 6.

What about the survivor count (dose: 50.0 mg/kg/injection, schedule: Q01DX009 (ip), vehicle: Klucel (hydroxypropylcellulose) (HPC)) of the same molecule?
Its survivor count is 2 of 6.

What about the survivor count [2] of the same molecule?
Its survivor count is 0 of 6.

What about the survivor count [1] of the same molecule?
Its survivor count is 0 of 6.

How did the T/C (dose: 33.0 mg/kg/injection, schedule: Q01DX009 (ip), vehicle: saline with Tween-80) turn out when `O=C1C=C(O/C=C/C(C(F)(F)F)C(F)(F)F)C(=O)c2ccccc21` was run?
Its T/C is 125 % of control.

What about the survivor count (dose: 75.0 mg/kg/injection, schedule: Q01DX009 (ip), vehicle: saline with Tween-80) of the same molecule?
The survivor count was 2 of 6.

What about the survivor count (dose: 200.0 mg/kg/injection, schedule: Q04DX003 (ip), vehicle: saline with Tween-80) of the same molecule?
The survivor count was 3 of 6.

`O=C1OCCOCCOCCOC(=O)c2ccccc2SSc2ccccc21` was tested. Which survivor count (dose: 400.0 mg/kg/injection, schedule: Q01DX001 (ip), vehicle: saline with Tween-80) did it give?
The survivor count was 6 of 6.

Which results are given for `C#CCOC(=O)Nc1nc2ccc(SC#N)cc2s1`?
survivor count [2]: 6 of 6; survivor count [1]: 0 of 6

With `O=S1(=O)C=C(c2ccccc2)S(=O)(=O)C=C1c1ccccc1` as the molecule, how does the survivor count (dose: 400.0 mg/kg/injection, schedule: Q04DX003 (ip), vehicle: saline with Tween-80) read?
Its survivor count is 6 of 6.

With `COc1ccc(C(=O)CCN(C)C)c(OC)c1` as the molecule, how does the survivor count (dose: 120.0 mg/kg/injection, schedule: Q01DX005 (ip), vehicle: saline) read?
Its survivor count is 4 of 6.

And the survivor count (dose: 240.0 mg/kg/injection, schedule: Q01DX005 (ip), vehicle: saline)?
Its survivor count is 0 of 6.

With `CC1(O)CC23CC(O)C4(O)C(CC(O)C4(C)C)C(C)(O)C2CCC1C3O` (configuration not stated) as the molecule, how does the survivor count (dose: 1.0 mg/kg/injection, schedule: Q01DX009 (ip), vehicle: Klucel (hydroxypropylcellulose) (HPC)) read?
Its survivor count is 1 of 6.

`CC(=O)OC1CC[N+](C)(Cc2ccccc2)C1` (configuration not stated) was tested. Which survivor count [3] did it give?
Its survivor count is 0 of 6.

With `C=C[P+](c1ccccc1)(c1ccccc1)c1ccccc1` as the molecule, how does the T/C (dose: 3.0 mg/kg/injection, schedule: Q01DX009 (ip), vehicle: saline) read?
The T/C was 134 % of control.

Which survivor count (dose: 50.0 mg/kg/injection, schedule: Q01DX009 (ip), vehicle: saline with Tween-80) does the source give for `Cc1ccc(NC(=O)Oc2ccc(Cl)c(C)c2)c([N+](=O)[O-])c1` here?
Its survivor count is 6 of 6.

With `Nc1ccn([C@@H](C=O)C[C@@H](C=O)CO)c(=O)n1` as the molecule, how does the T/C (dose: 50.0 mg/kg/injection, schedule: Q01DX005 (ip), vehicle: saline) read?
Its T/C is 129 % of control.

And the T/C (dose: 100.0 mg/kg/injection, schedule: Q01DX005 (ip), vehicle: saline)?
Its T/C is 141 % of control.

Which survivor count (dose: 6.25 mg/kg/injection, schedule: Q01DX009 (ip), vehicle: saline) does the source give for `CCC[CH2][Sn]([CH2]CCC)([CH2]CCC)[CH2]CC[N+](C)(C)C` here?
The survivor count was 3 of 6.

And the survivor count (dose: 12.5 mg/kg/injection, schedule: Q01DX009 (ip), vehicle: saline)?
Its survivor count is 3 of 6.

What about the survivor count (dose: 25.0 mg/kg/injection, schedule: Q01DX009 (ip), vehicle: saline) of the same molecule?
Its survivor count is 0 of 6.

And the survivor count (dose: 50.0 mg/kg/injection, schedule: Q01DX009 (ip), vehicle: saline)?
Its survivor count is 0 of 6.

And the survivor count (dose: 100.0 mg/kg/injection, schedule: Q01DX009 (ip), vehicle: saline)?
The survivor count was 0 of 6.

What about the survivor count [3] of the same molecule?
Its survivor count is 0 of 6.
